# PubChem BioAssay AID328 (DTP/NCI, 2004)
# The list shows only some results of the screen, not a fair sample: it gathers tests that were run many times, whatever their T/C, doses with no T/C, and many T/C values between a quarter and a half above the control. Further doses and runs are listed elsewhere. T/C gives the treated animals as a percentage of the vehicle group. Some doses have a count of surviving animals in place of a T/C: the source holds a T/C of zero for them, seemingly a mark for toxic or unscored doses. Some doses without a T/C left all or most animals alive at the check, yet need not have been tolerated: survival well below the control is almost never listed, so the zero probably covers shortened survival too. Counts of survivors are from the toxicity check (mostly the fifth day) where no day follows; animals may have died later. Schedules are NCI's codes, read here as Q, the interval in days (D) or hours (H), X, the number of doses. Signs of the kind (2×) give the number of equal values in this list. Some doses were run more than once; the values are given in rising order. For survival time, this PubChem deposit counts one and a half times the control or more as active, and values a quarter to a half above the control carry no call in these data; other NCI protocols may use other cut-offs. Some T/C values carry the count of animals alive at the toxicity check (mostly the fifth day); without a count, all were alive then.
# Test system: BDF1 mice, P388 leukemia ip, median survival T/C
# Experiment: NCI In Vivo Anticancer Drug Screen. Data for tumor model P388 Leukemia (intraperitoneal) in B6D2F1 (BDF1) mice
# Conditions: T/C endpoint: median survival time, higher T/C = longer survival
# Outline: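 Mice carrying the transplantable tumour receive compound or vehicle. Survival is followed in each arm, and the treated measure is divided by the vehicle measure.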
# [1] = dose: 200.0 mg/kg/injection, schedule: Q01DX009 (ip), vehicle: Klucel (hydroxypropylcellulose) (HPC)
# [2] = dose: 400.0 mg/kg/injection, schedule: Q01DX009 (ip), vehicle: Klucel (hydroxypropylcellulose) (HPC)
smiles,measurement,setting,value
O=c1cnn(C2OC(CO)C(O)C2O)c(=O)[nH]1 (centres undefined),survivor count,"dose: 200.0 mg/kg/injection, schedule: Q01DX001 (ip), vehicle: Klucel (hydroxypropylcellulose) (HPC)",3 of 3
same,T/C,"dose: 200.0 mg/kg/injection, schedule: Q01DX005 (ip), vehicle: Klucel (hydroxypropylcellulose) (HPC), evaluated on day 30","91, 92, 96, 98, 100 (2×), 104, 105 (2×), 106 (5×), 108, 108 [5 of 6 alive], 111, 112, 114, 115, 115 [5 of 6 alive], 116 (2×), 117 (2×), 121 (2×), 122 (2×), 123, 124, 128, 132 % of control"
same,T/C,"dose: 200.0 mg/kg/injection, schedule: Q01DX005 (ip), vehicle: Klucel (hydroxypropylcellulose) (HPC), evaluated on day 35",137 % of control
same,survivor count,"dose: 200.0 mg/kg/injection, schedule: Q01DX005 (ip), vehicle: Klucel (hydroxypropylcellulose) (HPC)",3 of 3
same,T/C,[1],"89 [5 of 6 alive], 90, 92, 96, 98, 100, 102, 104, 107, 108 (2×), 109 (2×), 110 (2×), 111, 112, 115, 116, 118 (2×), 121, 122, 122 [5 of 6 alive], 125, 126 (2×), 127, 129, 131, 134, 154 % of control"
same,survivor count,[1],5 of 6
same,T/C,"dose: 200.0 mg/kg/injection, schedule: Q04DX002 (ip), vehicle: Klucel (hydroxypropylcellulose) (HPC), evaluated on day 30","86, 90, 99 (3×), 100, 101, 102, 105, 107 (3×), 108 (2×), 109 (3×), 110 (4×), 111 (3×), 112 (3×), 115, 117, 118, 131, 134 % of control"
same,T/C,"dose: 200.0 mg/kg/injection, schedule: Q04DX002 (ip), vehicle: Klucel (hydroxypropylcellulose) (HPC), evaluated on day 35",106 % of control
same,survivor count,"dose: 200.0 mg/kg/injection, schedule: Q04DX002 (ip), vehicle: Klucel (hydroxypropylcellulose) (HPC)",6 of 6
same,T/C,"dose: 200.0 mg/kg/injection, schedule: Q04DX003 (ip), vehicle: Klucel (hydroxypropylcellulose) (HPC), evaluated on day 30","87, 93, 94, 95 (2×), 100, 101, 102 (2×), 103, 106 (2×), 107 (6×), 108, 109, 111 (2×), 112 (2×), 113, 114, 114 [5 of 6 alive], 115, 116, 117, 118 (2×), 128 % of control"
same,T/C,"dose: 200.0 mg/kg/injection, schedule: Q04DX003 (ip), vehicle: Klucel (hydroxypropylcellulose) (HPC), evaluated on day 35",98 % of control
same,survivor count,"dose: 200.0 mg/kg/injection, schedule: Q04DX003 (ip), vehicle: Klucel (hydroxypropylcellulose) (HPC)",3 of 3 (2×)
same,T/C,"dose: 400.0 mg/kg/injection, schedule: Q01DX001 (ip), vehicle: Klucel (hydroxypropylcellulose) (HPC), evaluated on day 30","89, 93 (2×), 95, 96, 96 [2 of 3 alive], 100 (2×), 101, 102 (2×), 103, 104 (2×), 106 (3×), 107, 109 (2×), 110, 111, 112, 113, 115, 117, 120, 133 % of control"
same,T/C,"dose: 400.0 mg/kg/injection, schedule: Q01DX001 (ip), vehicle: Klucel (hydroxypropylcellulose) (HPC), evaluated on day 35",102 and 110 % of control
same,survivor count,"dose: 400.0 mg/kg/injection, schedule: Q01DX001 (ip), vehicle: Klucel (hydroxypropylcellulose) (HPC)",3 of 3 and 6 of 6
same,T/C,"dose: 400.0 mg/kg/injection, schedule: Q01DX005 (ip), vehicle: Klucel (hydroxypropylcellulose) (HPC), evaluated on day 30","99, 100 (3×), 107, 108 (2×), 111, 112 (5×), 113 (2×), 115, 118, 119, 121 (3×), 122 (2×), 123, 125 (2×), 129, 130, 132, 134, 138 (2×), 149 % of control"
same,T/C,"dose: 400.0 mg/kg/injection, schedule: Q01DX005 (ip), vehicle: Klucel (hydroxypropylcellulose) (HPC), evaluated on day 35",125 % of control
same,survivor count,"dose: 400.0 mg/kg/injection, schedule: Q01DX005 (ip), vehicle: Klucel (hydroxypropylcellulose) (HPC)",3 of 3
same,T/C,[2],"88, 98, 100 (2×), 102 (2×), 103, 112 (2×), 113 (2×), 114 (2×), 115 (2×), 118, 119, 120, 122, 123, 125 (2×), 126, 127 (3×), 133, 139, 142, 160 % of control"
same,survivor count,[2],3 of 3 and 6 of 6
same,T/C,"dose: 400.0 mg/kg/injection, schedule: Q01DX010 (ip), vehicle: saline",141 % of control
same,T/C,"dose: 400.0 mg/kg/injection, schedule: Q04DX002 (ip), vehicle: Klucel (hydroxypropylcellulose) (HPC), evaluated on day 30","86, 90, 92 [2 of 3 alive], 95, 97, 102 (3×), 103 (2×), 104, 105 (4×), 107 (2×), 109 (2×), 110, 111, 112 (4×), 115, 116, 118, 121 (2×), 122 (2×), 129 % of control"
same,T/C,"dose: 400.0 mg/kg/injection, schedule: Q04DX002 (ip), vehicle: Klucel (hydroxypropylcellulose) (HPC), evaluated on day 35",106 % of control
same,T/C,"dose: 400.0 mg/kg/injection, schedule: Q04DX003 (ip), vehicle: Klucel (hydroxypropylcellulose) (HPC), evaluated on day 30","94 [5 of 6 alive], 100 (3×), 101, 102, 103 (2×), 104 (3×), 105 (3×), 107 (2×), 109 (2×), 111 (2×), 112 (2×), 113, 114 (3×), 115, 116 (2×), 119, 124, 126, 127 % of control"
same,T/C,"dose: 400.0 mg/kg/injection, schedule: Q04DX003 (ip), vehicle: Klucel (hydroxypropylcellulose) (HPC), evaluated on day 35",100 and 120 % of control
same,survivor count,"dose: 400.0 mg/kg/injection, schedule: Q04DX003 (ip), vehicle: Klucel (hydroxypropylcellulose) (HPC)",1 of 3
same,survivor count,"dose: 600.0 mg/kg/injection, schedule: Q01DX009 (ip), vehicle: Klucel (hydroxypropylcellulose) (HPC)",10 of 10
same,T/C,"dose: 800.0 mg/kg/injection, schedule: Q01DX010 (ip), vehicle: saline",136 and 141 % of control
same,T/C,"dose: 1600.0 mg/kg/injection, schedule: Q01DX010 (ip), vehicle: saline",129 % of control
